Here are results for six molecules from publication PMC9098493.

Amino acid sequences for entries named in this document (tags omitted).
UniProt Q96524: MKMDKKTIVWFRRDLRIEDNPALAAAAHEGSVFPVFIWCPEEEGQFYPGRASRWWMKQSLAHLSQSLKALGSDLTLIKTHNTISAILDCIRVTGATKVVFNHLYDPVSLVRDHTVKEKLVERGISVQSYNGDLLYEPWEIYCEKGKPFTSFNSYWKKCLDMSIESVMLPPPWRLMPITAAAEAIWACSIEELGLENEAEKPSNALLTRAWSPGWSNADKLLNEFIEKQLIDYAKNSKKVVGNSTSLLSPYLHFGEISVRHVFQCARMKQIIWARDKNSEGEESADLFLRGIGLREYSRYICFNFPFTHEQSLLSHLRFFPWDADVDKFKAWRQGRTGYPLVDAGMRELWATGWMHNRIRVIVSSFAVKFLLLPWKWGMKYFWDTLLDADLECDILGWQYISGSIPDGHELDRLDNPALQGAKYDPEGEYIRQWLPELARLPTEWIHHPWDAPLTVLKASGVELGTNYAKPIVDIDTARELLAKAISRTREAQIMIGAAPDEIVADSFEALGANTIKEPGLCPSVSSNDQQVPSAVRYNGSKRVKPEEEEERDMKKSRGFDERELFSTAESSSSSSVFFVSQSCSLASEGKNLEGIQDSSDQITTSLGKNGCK
UniProt Q9C7G4: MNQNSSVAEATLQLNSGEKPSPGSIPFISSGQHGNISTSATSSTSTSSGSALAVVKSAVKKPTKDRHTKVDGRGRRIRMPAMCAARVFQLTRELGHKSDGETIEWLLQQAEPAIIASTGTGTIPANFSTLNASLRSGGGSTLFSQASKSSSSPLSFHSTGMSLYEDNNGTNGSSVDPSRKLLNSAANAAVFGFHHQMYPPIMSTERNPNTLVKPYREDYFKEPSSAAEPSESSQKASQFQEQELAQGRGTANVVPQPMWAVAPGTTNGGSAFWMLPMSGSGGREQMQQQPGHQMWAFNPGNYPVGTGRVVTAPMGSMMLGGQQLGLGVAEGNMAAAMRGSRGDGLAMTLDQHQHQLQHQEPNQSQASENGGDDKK

No constants are given. Whether binding was seen depends on the method and setting. For some of these results: Binding seen in cells or lysates may run through a third protein. Some entries that bind do so weakly or less than the wild type. For some of these results: Tags and fused reporters may be left off the sequences shown.

Assay [1] addresses GFP-tagged CRY2 expressed in HEK-293T cells (Arabidopsis) (UniProt Q96524). The assay can be described thus: co-IP; co-transfected HEK-293T cells, blue light or dark for 3 h; lysate on GFP trap beads or Myc agarose beads, 4 °C, 2 h; some panels with CRY2 or PPK1 co-expressed.
The target of assay [2] is T1, LWD2 expressed in HEK-293T cells (Arabidopsis) (UniProt Q38960).
T1 sequence: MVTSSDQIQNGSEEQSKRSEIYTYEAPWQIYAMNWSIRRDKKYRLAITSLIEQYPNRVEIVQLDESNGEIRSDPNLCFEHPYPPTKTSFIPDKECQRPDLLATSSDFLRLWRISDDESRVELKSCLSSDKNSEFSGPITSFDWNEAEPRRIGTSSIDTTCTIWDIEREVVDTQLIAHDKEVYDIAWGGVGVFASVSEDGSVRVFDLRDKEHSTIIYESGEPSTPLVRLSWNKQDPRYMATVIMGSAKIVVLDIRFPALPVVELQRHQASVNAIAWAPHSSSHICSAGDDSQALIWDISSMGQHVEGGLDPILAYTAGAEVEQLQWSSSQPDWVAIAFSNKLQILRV
The assay is described as above.

Assay [3] has as its target T2, Myc-LWD1 expressed in HEK-293T cells (Arabidopsis) (UniProt Q9LPV9).
T2 sequence: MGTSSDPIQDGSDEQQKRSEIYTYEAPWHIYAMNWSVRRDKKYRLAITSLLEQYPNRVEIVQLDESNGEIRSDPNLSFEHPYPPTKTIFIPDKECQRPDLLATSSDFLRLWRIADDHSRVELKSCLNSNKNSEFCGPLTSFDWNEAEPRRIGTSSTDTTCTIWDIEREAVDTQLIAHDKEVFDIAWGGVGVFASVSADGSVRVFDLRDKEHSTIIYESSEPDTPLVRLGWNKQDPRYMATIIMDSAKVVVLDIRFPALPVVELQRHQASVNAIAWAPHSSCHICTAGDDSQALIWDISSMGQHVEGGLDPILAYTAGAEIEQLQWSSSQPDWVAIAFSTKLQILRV
The description is as above.

Assay [4] deals with CRY2 fused to the GAL4 DNA binding domain (bait, pBridge) (Arabidopsis) (UniProt Q96524). The assay can be described thus: two-hybrid; yeast Y190; prey in pGADT7, bait in pBridge; β-galactosidase activity; dark or blue light (30 μmol m^-2 s^-1) for 3 h.
A further assay deals with nYFP-CRY2 (Arabidopsis) (UniProt Q96524). Kind of assay: split reporter; BiFC (nYFP/cYFP) in transfected Arabidopsis protoplasts, confocal microscopy; darkness and blue light.
Assay [5] has as its target CRY2 expressed in HEK-293T cells (tag not stated for this experiment) (Arabidopsis) (UniProt Q96524). Kind of assay: co-IP; co-transfected HEK-293T cells, blue light or dark for 3 h; lysate on GFP trap beads or Myc agarose beads, 4 °C, 2 h; some panels with CRY2 or PPK1 co-expressed.

In the case of “Flag-tagged TCP22 expressed in HEK-293T cells (from UniProt Q9C7G4 1-375)”, in assay [1], the binding result is recorded as “binds”.
As to “GFP-TCP22 expressed in HEK-293T cells (from UniProt Q9C7G4 1-375)”, the binding entry in assay [2] and in assay [3] was “binds” in each case.
Take “TCP22 fused to the GAL4 activation domain (prey, pGADT7) (from UniProt Q9C7G4 1-375)”: in assay [4], the binding entry is “binds”.
Regarding cYFP-TCP22 (from UniProt Q9C7G4 1-375), in the assay with nYFP-CRY2 (Arabidopsis), the binding result is reported as “binds”.

B1: LWD2 expressed in HEK-293T cells (protein, UniProt Q38960 1-346)
chain: MVTSSDQIQNGSEEQSKRSEIYTYEAPWQIYAMNWSIRRDKKYRLAITSLIEQYPNRVEIVQLDESNGEIRSDPNLCFEHPYPPTKTSFIPDKECQRPDLLATSSDFLRLWRISDDESRVELKSCLSSDKNSEFSGPITSFDWNEAEPRRIGTSSIDTTCTIWDIEREVVDTQLIAHDKEVYDIAWGGVGVFASVSEDGSVRVFDLRDKEHSTIIYESGEPSTPLVRLSWNKQDPRYMATVIMGSAKIVVLDIRFPALPVVELQRHQASVNAIAWAPHSSSHICSAGDDSQALIWDISSMGQHVEGGLDPILAYTAGAEVEQLQWSSSQPDWVAIAFSNKLQILRV
In the case of B1, in assay [5], the binding entry is reported as “binds”.

B2: Myc-LWD1 expressed in HEK-293T cells (protein, UniProt Q9LPV9 1-346)
chain: MGTSSDPIQDGSDEQQKRSEIYTYEAPWHIYAMNWSVRRDKKYRLAITSLLEQYPNRVEIVQLDESNGEIRSDPNLSFEHPYPPTKTIFIPDKECQRPDLLATSSDFLRLWRIADDHSRVELKSCLNSNKNSEFCGPLTSFDWNEAEPRRIGTSSTDTTCTIWDIEREAVDTQLIAHDKEVFDIAWGGVGVFASVSADGSVRVFDLRDKEHSTIIYESSEPDTPLVRLGWNKQDPRYMATIIMDSAKVVVLDIRFPALPVVELQRHQASVNAIAWAPHSSCHICTAGDDSQALIWDISSMGQHVEGGLDPILAYTAGAEIEQLQWSSSQPDWVAIAFSTKLQILRV
In the case of B2, in assay [5], the binding result is recorded as “binds”.
